Assay results published in PMC5841321.
These are yes or no findings as the source states them, for the method shown. In cells and extracts the contact can be indirect. Here binding means that the protein was enriched with, or labelled near, the bait; the list need not be complete.

T1: E3 ubiquitin-protein ligase Midline-1 (UniProt O15344)
T1 sequence: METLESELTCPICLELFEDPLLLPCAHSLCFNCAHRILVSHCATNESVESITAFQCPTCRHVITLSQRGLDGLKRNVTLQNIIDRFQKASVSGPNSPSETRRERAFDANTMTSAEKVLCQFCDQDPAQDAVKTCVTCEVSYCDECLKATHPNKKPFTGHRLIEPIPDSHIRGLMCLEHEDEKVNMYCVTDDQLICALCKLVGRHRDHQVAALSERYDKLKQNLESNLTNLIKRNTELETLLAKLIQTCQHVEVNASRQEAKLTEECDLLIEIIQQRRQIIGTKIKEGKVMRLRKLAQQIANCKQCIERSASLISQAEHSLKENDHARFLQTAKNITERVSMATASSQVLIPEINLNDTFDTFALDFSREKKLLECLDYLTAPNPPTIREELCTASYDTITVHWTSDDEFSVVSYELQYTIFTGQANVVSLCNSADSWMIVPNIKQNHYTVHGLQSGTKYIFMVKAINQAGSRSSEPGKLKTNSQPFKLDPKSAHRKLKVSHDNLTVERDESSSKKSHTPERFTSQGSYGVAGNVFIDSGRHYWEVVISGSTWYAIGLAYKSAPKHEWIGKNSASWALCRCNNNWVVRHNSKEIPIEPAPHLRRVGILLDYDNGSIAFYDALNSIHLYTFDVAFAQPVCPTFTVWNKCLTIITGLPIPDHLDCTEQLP


The binders below were run against T1, E3 ubiquitin-protein ligase Midline-1 (assay: affinity purification with mass spectrometry; MID1-FLAG expressed in HEK293T, lysate in TKM buffer (20 mM Tris pH 7.4, 100 mM KCl, 5 mM MgCl2, 0.5% NP40, 1 mM DTT), anti-FLAG M1 agarose overnight at 4 °C, 6 washes; untransfected cells as control; Q-Exactive, MaxQuant, 1% FDR).

| binding | Binder |
| --- | --- |
| binds | Protein LYRIC (protein, UniProt Q86UE4 1-582) MAARSWQDELAQQAEEGSARLREMLSVGLGFLRTELGLDLGLEPKRYPGWVILVGTGALGLLLLFLLGYGWAAACAGARKKRRSPPRKREEAAAVPAAAPDDLALLKNLRSEEQKKKNRKKLSEKPKPNGRTVEVAEGEAVRTPQSVTAKQPPEIDKKNEKSKKNKKKSKSDAKAVQNSSRHDGKEVDEGAWETKISHREKRQQRKRDKVLTDSGSLDSTIPGIENTITVTTEQLTTASFPVGSKKNKGDSHLNVQVSNFKSGKGDSTLQVSSGLNENLTVNGGGWNEKSVKLSSQISAGEEKWNSVSPASAGKRKTEPSAWSQDTGDANTNGKDWGRSWSDRSIFSGIGSTAEPVSQSTTSDYQWDVSRNQPYIDDEWSGLNGLSSADPNSDWNAPAEEWGNWVDEERASLLKSQEPIPDDQKVSDDDKEKGEGALPTGKSKKKKKKKKKQGEDNSTAQDTEELEKEIREDLPVNTSKTRPKQEKAFSLKTISTSDPAEVLVKNSQPIKTLPPATSTEPSVILSKSDSDKSSSQVPPILQETDKSKSNTKQNSVPPSQTKSETSWESPKQIKKKKKARRET |
| binds | Nucleolar complex protein 4 homolog (protein, UniProt Q9BVI4 1-516) MEREPGAAGVRRALGRRLEAVLASRSEANAVFDILAVLQSEDQEEIQEAVRTCSRLFGALLERGELFVGQLPSEEMVMTGSQGATRKYKVWMRHRYHSCCNRLGELLGHPSFQVKELALSALLKFVQLEGAHPLEKSKWEGNYLFPRELFKLVVGGLLSPEEDQSLLLSQFREYLDYDDTRYHTMQAAVDAVARVTGQHPEVPPAFWNNAFTLLSAVSLPRREPTVSSFYVKRAELWDTWKVAHLKEHRRVFQAMWLSFLKHKLPLSLYKKVLLIVHDAILPQLAQPTLMIDFLTRACDLGGALSLLALNGLFILIHKHNLEYPDFYRKLYGLLDPSVFHVKYRARFFHLADLFLSSSHLPAYLVAAFAKRLARLALTAPPEALLMVLPFICNLLRRHPACRVLVHRPHGPELDADPYDPGEEDPAQSRALESSLWELQALQRHYHPEVSKAASVINQALSMPEVSIAPLLELTAYEIFERDLKKKGPEPVPLEFIPAQGLLGRPGELCAQHFTLS |
| binds | Probable 28S rRNA (cytosine(4447)-C(5))-methyltransferase (protein, UniProt P46087 1-812) MGRKLDPTKEKRGPGRKARKQKGAETELVRFLPAVSDENSKRLSSRARKRAAKRRLGSVEAPKTNKSPEAKPLPGKLPKGISAGAVQTAGKKGPQSLFNAPRGKKRPAPGSDEEEEEEDSEEDGMVNHGDLWGSEDDADTVDDYGADSNSEDEEEGEALLPIERAARKQKAREAAAGIQWSEEETEDEEEEKEVTPESGPPKVEEADGGLQINVDEEPFVLPPAGEMEQDAQAPDLQRVHKRIQDIVGILRDFGAQREEGRSRSEYLNRLKKDLAIYYSYGDFLLGKLMDLFPLSELVEFLEANEVPRPVTLRTNTLKTRRRDLAQALINRGVNLDPLGKWSKTGLVVYDSSVPIGATPEYLAGHYMLQGASSMLPVMALAPQEHERILDMCCAPGGKTSYMAQLMKNTGVILANDANAERLKSVVGNLHRLGVTNTIISHYDGRQFPKVVGGFDRVLLDAPCSGTGVISKDPAVKTNKDEKDILRCAHLQKELLLSAIDSVNATSKTGGYLVYCTCSITVEENEWVVDYALKKRNVRLVPTGLDFGQEGFTRFRERRFHPSLRSTRRFYPHTHNMDGFFIAKFKKFSNSIPQSQTGNSETATPTNVDLPQVIPKSENSSQPAKKAKGAAKTKQQLQKQQHPKKASFQKLNGISKGADSELSTVPSVTKTQASSSFQDSSQPAGKAEGIREPKVTGKLKQRSPKLQSSKKVAFLRQNAPPKGTDTQTPAVLSPSKTQATLKPKDHHQPLGRAKGVEKQQLPEQPFEKAAFQKQNDTPKGPQPPTVSPIRSSRPPPAKRKKSQSRGNSQLLLS |
| binds | Myb-binding protein 1A (protein, UniProt Q9BQG0 1-1328) MESRDPAQPMSPGEATQSGARPADRYGLLKHSREFLDFFWDIAKPEQETRLAATEKLLEYLRGRPKGSEMKYALKRLITGLGVGRETARPCYSLALAQLLQSFEDLPLCSILQQIQEKYDLHQVKKAMLRPALFANLFGVLALFQSGRLVKDQEALMKSVKLLQALAQYQNHLQEQPRKALVDILSEVSKATLQEILPEVLKADLNIILSSPEQLELFLLAQQKVPSKLKKLVGSVNLFSDENVPRLVNVLKMAASSVKKDRKLPAIALDLLRLALKEDKFPRFWKEVVEQGLLKMQFWPASYLCFRLLGAALPLLTKEQLHLVMQGDVIRHYGEHVCTAKLPKQFKFAPEMDDYVGTFLEGCQDDPERQLAVLVAFSSVTNQGLPVTPTFWRVVRFLSPPALQGYVAWLRAMFLQPDLDSLVDFSTNNQKKAQDSSLHMPERAVFRLRKWIIFRLVSIVDSLHLEMEEALTEQVARFCLFHSFFVTKKPTSQIPETKHPFSFPLENQAREAVSSAFFSLLQTLSTQFKQAPGQTQGGQPWTYHLVQFADLLLNHSHNVTTVTPFTAQQRQAWDRMLQTLKELEAHSAEARAAAFQHLLLLVGIHLLKSPAESCDLLGDIQTCIRKSLGEKPRRSRTKTIDPQEPPWVEVLVEILLALLAQPSHLMRQVARSVFGHICSHLTPRALQLILDVLNPETSEDENDRVVVTDDSDERRLKGAEDKSEEGEDNRSSESEEESEGEESEEEERDGDVDQGFREQLMTVLQAGKALGGEDSENEEELGDEAMMALDQSLASLFAEQKLRIQARRDEKNKLQKEKALRRDFQIRVLDLVEVLVTKQPENALVLELLEPLLSIIRRSLRSSSSKQEQDLLHKTARIFTHHLCRARRYCHDLGERAGALHAQVERLVQQAGRQPDSPTALYHFNASLYLLRVLKGNTAEGCVHETQEKQKAGTDPSHMPTGPQAASCLDLNLVTRVYSTALSSFLTKRNSPLTVPMFLSLFSRHPVLCQSLLPILVQHITGPVRPRHQACLLLQKTLSMREVRSCFEDPEWKQLMGQVLAKVTENLRVLGEAQTKAQHQQALSSLELLNVLFRTCKHEKLTLDLTVLLGVLQGQQQSLQQGAHSTGSSRLHDLYWQAMKTLGVQRPKLEKKDAKEIPSATQSPISKKRKKKGFLPETKKRKKRKSEDGTPAEDGTPAATGGSQPPSMGRKKRNRTKAKVPAQANGTPTTKSPAPGAPTRSPSTPAKSPKLQKKNQKPSQVNGAPGSPTEPAGQKQHQKALPKKGVLGKSPLSALARKKARLSLVIRSPSLLQSGAKKKAQVRKAGKP |
| binds | Putative helicase MOV-10 (protein, UniProt Q9HCE1 1-1003) MPSKFSCRQLREAGQCFESFLVVRGLDMETDRERLRTIYNRDFKISFGTPAPGFSSMLYGMKIANLAYVTKTRVRFFRLDRWADVRFPEKRRMKLGSDISKHHKSLLAKIFYDRAEYLHGKHGVDVEVQGPHEARDGQLLIRLDLNRKEVLTLRLRNGGTQSVTLTHLFPLCRTPQFAFYNEDQELPCPLGPGECYELHVHCKTSFVGYFPATVLWELLGPGESGSEGAGTFYIARFLAAVAHSPLAAQLKPMTPFKRTRITGNPVVTNRIEEGERPDRAKGYDLELSMALGTYYPPPRLRQLLPMLLQGTSIFTAPKEIAEIKAQLETALKWRNYEVKLRLLLHLEELQMEHDIRHYDLESVPMTWDPVDQNPRLLTLEVPGVTESRPSVLRGDHLFALLSSETHQEDPITYKGFVHKVELDRVKLSFSMSLLSRFVDGLTFKVNFTFNRQPLRVQHRALELTGRWLLWPMLFPVAPRDVPLLPSDVKLKLYDRSLESNPEQLQAMRHIVTGTTRPAPYIIFGPPGTGKTVTLVEAIKQVVKHLPKAHILACAPSNSGADLLCQRLRVHLPSSIYRLLAPSRDIRMVPEDIKPCCNWDAKKGEYVFPAKKKLQEYRVLITTLITAGRLVSAQFPIDHFTHIFIDEAGHCMEPESLVAIAGLMEVKETGDPGGQLVLAGDPRQLGPVLRSPLTQKHGLGYSLLERLLTYNSLYKKGPDGYDPQFITKLLRNYRSHPTILDIPNQLYYEGELQACADVVDRERFCRWAGLPRQGFPIIFHGVMGKDEREGNSPSFFNPEEAATVTSYLKLLLAPSSKKGKARLSPRSVGVISPYRKQVEKIRYCITKLDRELRGLDDIKDLKVGSVEEFQGQERSVILISTVRSSQSFVQLDLDFNLGFLKNPKRFNVAVTRAKALLIIVGNPLLLGHDPDWKVFLEFCKENGGYTGCPFPAKLDLQQGQNLLQGLSKLSPSTSGPHSHDYLPQEREGEGGLSLQVEPEWRNEL |
